The experiment concerns M. mycetomatis strain mm55. The settings on record: primary screen, metabolic activity vs growth control, 96 h, 2 µM, inhibitor.

Structures can show the parent of a compound that is named as a salt. Where two headings read alike, the source gives them in different places. In all, about 5,300 compounds went through this assay and about 130 (2.5%) showed an effect of 50% or more. The list shows a part of the results.

`COc1cc(Br)c(S(=O)(=O)Nc2ccc(Cl)c(O[C@@H]3CCN(C)C3)c2)cc1OC` [ONC0002598, sb657510]: the “% viability” value is listed as 67.43%.
On to `CN(C)c1nc(N)c(C(=O)Nc2cccnc2)nc1Cl` [ONC0001616, acdpp], for which the “% viability” value was 104.7%.
Consider `COc1cc(N2CCN(C)CC2)ccc1Nc1nccc(-c2cn(C)c3cnccc23)n1` [ONC0000822, az191], for which the “% viability” value worked out at 62.57%.
Still for that read-out and setting: to `O=C(O)[C@H](O)[C@@H](O)[C@H](O)[C@H](O)CO` [ONC0003285, sodium gluconate] belongs 88%; to `N#Cc1ccc(NCCNCC(=O)N2CCC[C@H]2C#N)nc1` [ONC0002659, nvpdpp728], 81.04%.
On to `CCCCCCCC(=O)N[C@H](CN1CCCC1)[C@H](O)c1ccc2c(c1)OCCO2` [ONC0001065, eliglustat], for which the “% viability” value is listed as 59.74%.
On to `COCCN(C(=O)c1cc(OC)c(OC)c(OC)c1)c1nc(-c2ccccc2)cs1` [ONC0000165, eact], for which the “% viability” value is 82.31%.
Same read-out and setting: to `O=C(O)CNC(=O)c1ccccc1` [ONC0002731, hippuric acid] belongs 98.96%; to `CN1c2c(nc(N)[nH]c2=O)NC[C@@H]1CNc1ccc(C(=O)N[C@@H](CCC(=O)O)C(=O)O)cc1` [ONC0002220, levomefolate calcium], 182.5%.
On the same count and under the same terms, to `C#C[C@]1(O)CC[C@H]2[C@@H]3CCC4=CC(=O)CC[C@@H]4[C@H]3CC[C@@]21C` [ONC0004517, norethindrone norethisterone] belongs 61.47%; to `CO[C@@]1(NC(=O)C(C(=O)O)c2ccc(O)cc2)C(=O)N2C(C(=O)O)=C(CSc3nnnn3C)CO[C@@H]21` (stereo partly drawn) [ONC0000356, moxalactam disodium], 51.37%; to `O=C(O)[C@@H](O)[C@@H](O)[C@H](O)[C@@H](O)C(=O)O` [ONC0005415, glucaricacid], 117.4%.
For the molecule `COc1ccc(C(=O)N2CCN(c3ccc4c(c3)CCC(=O)N4)CC2)cc1OC` [ONC0005287, vesnarinone], the “% viability” value is 108.3%.
The same measure, in the same setting: to `C=CCc1cc(OC)c(O)c(C(=O)NCCO)c1` [ONC0004680, alibendol] belongs 120.3%; to `CCCC(C)NC(=O)c1ccc(Cl)c(Cl)c1` (stereo not drawn) [ONC0000003, nsc405020], 134.9%; to `COC1(C[S@@+]([O-])c2ccccc2)CCN(CCc2c[nH]c3ccc(F)cc23)CC1` [ONC0001454, gr159897], 55.31%.
As for `Cc1c(C)c2c(c(C)c1O)CCC(C)(C)O2` [ONC0002146, apc100], the “% viability” value is 74.75%.
Still for that read-out and setting: to `Nc1ccc(S(=O)(=O)Nc2ncccn2)cc1` [ONC0000536, sulfadiazine] belongs 67.79%; to `Cc1cc(C)cc(C(=O)OC2CC3CCC(C2)N3C)c1` (stereo not drawn) [ONC0001330, tropanyl35dimethylbenzoate], 81.23%.
Turning to `CC(=O)NCC(=O)N1[C@@H]2CC[C@H]1c1ccc(Nc3ncc(C(F)(F)F)c(NC4CCC4)n3)cc12` [ONC0001280, pf03814735], the “% viability” value is on record as 83.62%.
The same measure, in the same setting: to `COc1ccc([C@@H]2CNC(=O)C2)cc1OC1CCCC1` [ONC0001505, rolipramr] belongs 84.43%.
The same measure, in the same setting: to `CC(=O)NCCC(=O)N[C@@H](Cc1c[nH]cn1)C(=O)O` [ONC0003372, nacetyl carnosine] belongs 72.06%.
Same read-out and setting: to `N[C@H]1CCN(O)C1=O` [ONC0003125, ha966s] belongs 73.5%.
`CC(C)[C@H](C(=O)Nc1ccc(C(=O)NO)cc1)c1ccccc1` [ONC0005231, ar42 hdac42]: the “% viability” value turned out to be 143.2%.
Same read-out and setting: to `C#C[C@]1(OC(C)=O)CC[C@H]2[C@@H]3CCC4=C[C@@H](OC(C)=O)CC[C@@H]4[C@H]3CC[C@@]21C` [ONC0003967, ethynodiol diacetate] belongs 84.51%; to `Cc1ccc([N+](=O)[O-])cc1O` [ONC0003756, 2methyl5nitrophenol], 92.2%.
`O=C(Nc1cccc(Nc2ncc(Br)c(NCCc3c[nH]cn3)n2)c1)N1CCCC1` [ONC0004896, bx912]: the “% viability” value was found to be 111%.
Still for that read-out and setting: with `CC(=O)OCC1=C(C(=O)O)N2C(=O)[C@@H](NC(=O)CSC(=NC(C)C)NC(C)C)[C@H]2SC1` [ONC0003427, cefathiamidine] the figure was 77.15%; with `CNC(=O)c1c(C)oc2cc(Oc3ncnc4cc(OC)c(OC)cc34)ccc12` [ONC0001267, fruquintinib], 109%; with `N#Cc1ccc2[nH]c(O)c(-c3ccc(CN4CCOCC4)cn3)c2c1` [ONC0005123, azd1080], 87.22%.
With `Cc1ccc(C(=O)NCCCCCC(=O)Nc2ccccc2N)cc1` [ONC0005128, rg2833 rgfp109], the “% viability” value came to 112.3%.
For the molecule `Oc1ccc(Nc2nc(-c3ccc(Cl)cc3)cs2)cc1` [ONC0001751, skiii], the “% viability” value is recorded as 85.39%.
The same measure, in the same setting: to `COc1cc2ncnc(Nc3ccc(Cl)cc3F)c2cc1OC` [ONC0001350, zm306416] belongs 114.8%.
The same measure, in the same setting: to `NS(=O)(=O)c1ccc(C(=O)O)cc1` [ONC0003914, carzenide] belongs 66.64%; to `C[C@@H]1CC[C@H]2[C@@H](C)C(=O)O[C@@H]3O[C@@]4(C)CC[C@@H]1[C@]32OO4` [ONC0003146, artemisinin], 80.92%; to `CN(C)[C@@H]1C(=O)C(C(N)=O)C(=O)[C@@]2(O)C(=O)C3C(=O)c4c(O)cccc4[C@@](C)(O)[C@H]3[C@H](O)[C@@H]12` (stereo partly drawn) [ONC0000529, oxytetracycline], 87.14%.
For `C=C[C@H]1C[N@@]2CC[C@H]1C[C@@H]2[C@@H](O)c1ccnc2ccc(OC)cc12` [ONC0003347, quinidine gluconate], the “% viability” value was 101.1%.
With `CCC(=O)NO` [ONC0002308, zami633], the “% viability” value is 45.69%.
Still for that read-out and setting: to `CCOc1ccccc1C(N)=O` [ONC0003166, ethenzamide] belongs 67.02%; to `O=C1C(=O)C([C@H]2CC[C@H](c3ccc(Cl)cc3)CC2)C(=O)c2ccccc21` (stereo partly drawn) [ONC0004233, atovaquone], 82.03%; to `N[C@@H]1CCCN(c2c(/C=C3\SC(=O)NC3=O)cccc2-c2ccccc2)C1` [ONC0002158, azd1208], 83.32%.
In the case of `CO[C@H]1C[C@@H]2CC[C@@H](C)[C@@](O)(O2)C(=O)C(=O)N2CCCC[C@H]2C(=O)O[C@H]([C@H](C)C[C@@H]2CC[C@@H](O)[C@H](OC)C2)CC(=O)[C@H](C)/C=C(\C)[C@@H](O)[C@@H](OC)C(=O)[C@H](C)C[C@H](C)/C=C/C=C/C=C/1C` [ONC0001958, rapamycin], the “% viability” value turned out to be 83.67%.
Still for that read-out and setting: to `Cc1cc(O)c(C(=O)N[C@@H](C(=O)N[C@@H]2C(=O)N3C(C(=O)O)=C(CSc4nnnn4C)CS[C@H]23)c2ccc(O)cc2)cn1.[Na]` [ONC0002260, cefpiramide sodium] belongs 135.6%; to `CN(CCOc1ccc(NS(C)(=O)=O)cc1)CCc1ccc(NS(C)(=O)=O)cc1` [ONC0005010, dofetilide tikosyn], 99.33%; to `CC(=O)N1CCN(c2ccc(OCC3COC(Cn4ccnc4)(c4ccc(Cl)cc4Cl)O3)cc2)CC1` (stereo not drawn) [Ketoconazole], 1.788%.
With `Cc1[nH]c(/C=C2\C(=O)Nc3ccccc32)c(C)c1CCC(=O)O` [ONC0002635, orantinib], the “% viability” value turned out to be 79.1%.
Turning to `COc1cc(C=O)ccc1O` [ONC0004482, vanillin], the “% viability” value came out at 112.7%.
On the same count and under the same terms, with `COc1ccc2cccc(CCNC(C)=O)c2c1` [ONC0004782, agomelatine] the figure was 103.1%; with `CN(C)CCCCSC(=N)N` [ONC0002634, skf91488], 74.33%.
With `O=C(NCc1cccc(O)c1)Nc1nc(-c2ccncc2)cs1` [ONC0005121, rki1447], the “% viability” value (Madurella mycetomatis metabolic activity at 2µM (%)) is 69.4%.
For the molecule `CNc1ncc2cc(-c3cc(NC(=O)NCCC(C)(C)C)c(F)cc3C)c(C)nc2n1` [ONC0004544, ly3009120], the “% viability” value came out at 68.8%.
Still for that read-out and setting: with `C#C[C@]1(O)CC[C@H]2[C@@H]3CCc4cc(OC)ccc4[C@H]3CC[C@@]21C` [ONC0000489, mestranol] the figure was 69.04%; with `CC(C)(C)NS(=O)(=O)c1cncc(-c2cc(F)c3nc(N)nn3c2)c1` [ONC0000027, czc24832], 70.34%.
As for `O=C(O)P(=O)(O)O` [ONC0000571, foscarnet sodium], the “% viability” value worked out at 78.67%.
As to `CCc1cccc(CC)c1NC(=O)c1nn(C)c2c1CCc1cnc(Nc3ccc(C(=O)NC4CCN(C)CC4)cc3OC(F)(F)F)nc1-2` [ONC0002233, nmsp715], the “% viability” value is on record as 70.47%.
Consider `CCCCCCCCCCCCCCCC[N+](C)(C)CCN(Cc1ccc(OC)cc1)c1ncccn1` [ONC0004345, thonzonium bromide], for which the “% viability” value is 90.73%.
`COc1cc(OC)cc(N(CCNC(C)C)c2ccc3ncc(-c4cnn(C)c4)nc3c2)c1` [ONC0001225, erdafitinib]: the “% viability” value is 103.9%.
For `Cc1nc(C)c(Cl)c(O)c1Cl` [ONC0004145, clopidol], the “% viability” value was 65.11%.
Same read-out and setting: to `CCN(CC)CCCC(C)Nc1c2ccc(Cl)cc2nc2ccc(OC)cc12` (stereo not drawn) [ONC0003413, quinacrine hydrochloride] belongs 84.04%.
In the case of `O=C(NO)C1(CS(=O)(=O)c2ccc(Oc3ccc(Cl)cc3)cc2)CCOCC1` [ONC0001029, cts1027], the “% viability” value is on record as 72.65%.
Same read-out and setting: with `CC(C)C[C@H](NC(=O)[C@@H](O)[C@H](N)Cc1ccccc1)C(=O)O` [ONC0001526, ubenimex] the figure was 79.55%.
Take `COc1ccc(-n2nc3c4c([nH]cc-3c2=O)CCCCC4)cc1` [ONC0003560, cgs20625]: the “% viability” value was determined as 134.6%.
The same measure, in the same setting: to `O=P(O)(O)C(O)(Cc1cnc2ccccn12)P(=O)(O)O` [ONC0000278, minodronic acid hydrate] belongs 88.21%.

The values above are taken from publication PMC12670160, “A drug-repurposing screen of FDA- and EMA-approved drugs identifies two NF-κB inhibitors active against eumycetoma” (Journal of Antimicrobial Chemotherapy, 2025).
